Results taken from US20030096355A1 (published 2003).
Results are given in words; binding and its absence hold for the method and conditions named. Some results given as binding are weak or reduced against the parent protein; the word gives no strength.

Target: T1, active murine TRAIL (murine, UniProt P50592 99-291)
T1 construct: The result is told only for 'active murine TRAIL which was bioactive in cell culture assays'; The construct (flag-tagged 99-291 or Fc fusion) is not tied to the KD; also called murine flag TRAIL; murine Fc TRAIL
T1 sequence (looked up): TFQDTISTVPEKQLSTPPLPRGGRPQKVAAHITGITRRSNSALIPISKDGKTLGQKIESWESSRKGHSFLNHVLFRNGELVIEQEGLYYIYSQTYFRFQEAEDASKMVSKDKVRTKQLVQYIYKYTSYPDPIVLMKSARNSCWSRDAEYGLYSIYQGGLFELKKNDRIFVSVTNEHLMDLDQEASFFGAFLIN
Assay: SPR, Biacore 2000, 25° C

binding: binds
B1: recombinant ymkz5-receptor (receptor)
chain: MPESYSFNCPDGEYQSNDVCCKTCPSGTFVKAPCKIPHTQGQCEKCHPGTFTGKDNGLHDCELCSTCDKDQNMVADCSATSDRKCECQIGLYYYDPKFPESCRPCTKCPQGIPVLQECNSTANTVC
